Measured values: publication PMC5381960
For at least one entry, the source does not settle the construct or the ends of the probe. Where a protein sequence is shown, tags need not be part of it.

Target: T1, M.HpaII methyltransferase (HpaII DNA cytosine methyltransferase) (UniProt P15446)
T1 sequence (looked up, limits assumed): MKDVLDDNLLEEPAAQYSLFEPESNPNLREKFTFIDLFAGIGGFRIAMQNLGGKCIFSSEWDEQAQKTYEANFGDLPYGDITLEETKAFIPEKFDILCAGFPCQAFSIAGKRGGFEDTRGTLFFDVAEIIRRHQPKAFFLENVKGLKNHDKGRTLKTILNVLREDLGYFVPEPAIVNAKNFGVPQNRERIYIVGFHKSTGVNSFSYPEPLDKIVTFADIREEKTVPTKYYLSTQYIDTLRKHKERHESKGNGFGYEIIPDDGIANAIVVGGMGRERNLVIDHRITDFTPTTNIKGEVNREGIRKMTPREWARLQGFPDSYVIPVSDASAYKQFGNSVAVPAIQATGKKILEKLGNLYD
Test: covalent adduct trapping at 5-fluoro-dC (used as block in CMG unwinding assay, native PAGE)
Details: irreversible, adduct formed as in Duxin 2014, 5-fluoro-dC at second C of CCGG in strand 1 (position 49), phosphorothioate bonds linking the last six dT at the 3' end of strand 2, CMG unwinding assays: 20 mM Tris acetate pH 7.6, 5 mM DTT, 0.1 mM EDTA, 10 mM MgSO4, 30 mM KCl, 40 ug/ml BSA, 1 mM ATP, 30 C, commercial protein, label: 5'-32P on strand 2

“TTTTTTTTTTTTTTTTTTTTTTTTTTTTTTTTTTTTTTTTGACGCTGCCGGATTCTGGCTTGCTAGGACATTACAGGATCGTTCGGTCTC / GAGACCGAACGATCCTGTAATGTCCTAGCAAGCCAGAATCCGGCAGCGTCTTTTTTTTTTTTTTTTTTTTTTTTTTTTTTTTTTTTTTTT [M.HpaII LAG/LEAD fork with 5-fluoro-dC]”: binds.
